Measurements reported in PubChem BioAssay AID504784 (Drosophila RNAi Screening Center, 2011)
The screen tested about 17,000 reagents; this is a random part of those that have a named target and a result. 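Each column is one replicate's B-score; the combined score over replicates was not deposited, so single values may mislead.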 Names joined by + are all predicted targets of the reagent. Further read-outs or replicates are left out here. Reagent sequences are not shown.

Assay: 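Search for regulators of lipid droplet storage in oleate-fed fly cells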 (primary screen)
System: Drosophila Kc167 embryonic cells
Reagents: long dsRNA against Drosophila genes, about 250 ng dsRNA per well
Duration: 4 days
Conditions: cells fed 400 µM oleic acid bound to BSA
Detection: 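Cells imaged and segmented; ratio of lipid droplet area to nuclear area, log-transformed, then normalised as a B-score over the screen; higher means more stored lipid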
Scale: droplet/nuclear area B-score: higher = more stored lipid (overstorage)

After knock-down of CG2972 [DRSC18250], the record shows droplet/nuclear area B-score, replicate 1 = 0.71.
With knock-down of CG3156 [DRSC18503] the results were droplet/nuclear area B-score, replicate 1 = -1.79.
SLIRP2 [DRSC16363] showed droplet/nuclear area B-score, replicate 1 = -0.0564.
CG31687 + Cdc23 [DRSC23052] scored droplet/nuclear area B-score, replicate 1 = 0.299.
Evi5 [DRSC19421] scored droplet/nuclear area B-score, replicate 1 = -0.149.
Depletion of CG13841 [DRSC14691] gave: droplet/nuclear area B-score, replicate 1 = 0.741.
CG17570 [DRSC01770] scored droplet/nuclear area B-score, replicate 1 = -0.233.
Silencing of CG17570 [DRSC03754] came out at: droplet/nuclear area B-score, replicate 1 = 0.0295.
With knock-down of CG4849 [DRSC15662], the record shows droplet/nuclear area B-score, replicate 1 = 1.21.
For CG12680 [DRSC17871] the deposit lists droplet/nuclear area B-score, replicate 1 = -1.15.
Depletion of CG9701 [DRSC11093] resulted in: droplet/nuclear area B-score, replicate 1 = 0.121.
Depletion of CG32984 [DRSC21602] resulted in: droplet/nuclear area B-score, replicate 1 = 1.68.
ppan [DRSC17030] scored droplet/nuclear area B-score, replicate 1 = 0.657.
After knock-down of Proc-R [DRSC18410], the record shows droplet/nuclear area B-score, replicate 1 = -0.0271.
Cyp317a1 [DRSC07366] showed droplet/nuclear area B-score, replicate 1 = 0.502.
Against CG16782 [DRSC18118], the values are droplet/nuclear area B-score, replicate 1 = -0.66.

Laid out differently: entries from further up
Gene,amplicon,"droplet/nuclear area B-score, replicate 1"
CG12680,DRSC17871,-1.15
CG9701,DRSC11093,0.121
